The supplement of paper PMC3545927
Only a part is listed here, and it is no random draw.

The chains behind the UniProt entries cited, without tags or fusion partners.
furin, P09958, UniProt P09958, whole entry: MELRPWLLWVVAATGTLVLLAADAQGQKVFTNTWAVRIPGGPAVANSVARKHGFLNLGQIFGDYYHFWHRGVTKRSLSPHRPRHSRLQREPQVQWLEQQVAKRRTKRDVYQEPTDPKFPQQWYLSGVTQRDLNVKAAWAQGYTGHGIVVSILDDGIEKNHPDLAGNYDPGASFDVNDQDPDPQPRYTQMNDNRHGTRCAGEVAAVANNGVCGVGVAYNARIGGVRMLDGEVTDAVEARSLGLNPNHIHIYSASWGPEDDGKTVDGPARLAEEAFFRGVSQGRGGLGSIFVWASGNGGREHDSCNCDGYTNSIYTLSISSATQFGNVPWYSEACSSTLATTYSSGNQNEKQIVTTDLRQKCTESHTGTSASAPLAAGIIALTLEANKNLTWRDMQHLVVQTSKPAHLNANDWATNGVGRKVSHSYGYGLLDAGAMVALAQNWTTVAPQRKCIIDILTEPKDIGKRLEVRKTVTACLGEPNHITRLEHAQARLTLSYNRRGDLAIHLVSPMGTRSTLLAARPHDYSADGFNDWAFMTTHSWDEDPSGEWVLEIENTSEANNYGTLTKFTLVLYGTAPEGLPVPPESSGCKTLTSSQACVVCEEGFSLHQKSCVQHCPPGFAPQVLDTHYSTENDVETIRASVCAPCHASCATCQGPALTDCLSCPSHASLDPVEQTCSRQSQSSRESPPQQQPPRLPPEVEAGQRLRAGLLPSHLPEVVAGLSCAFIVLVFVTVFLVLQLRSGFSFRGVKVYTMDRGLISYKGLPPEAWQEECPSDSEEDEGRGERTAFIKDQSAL

Target: furin, P09958
Assay: furin cleavage Z-score vs untreated control; higher = more cleavage, active = 3.5 or more, inactive = 1 or less, 8 variable residues between constant flanks
Procedure, shortened: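 Furin-free reactions served as the baseline for the cleavage Z-score, which is the log read count lowess-adjusted and scaled by median absolute deviation. Counts came from released DNA, adapter-tagged by PCR and sequenced. Purified furin had cut 8-mer peptides fused to a cDNA oligonucleotide on magnetic beads during 7.5, 15 or 30 min at 1:10 enzyme:substrate.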
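Note: purified furin at 1:10 enzyme:substrate in 50 mM HEPES pH 7.5.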

CAYNCRCKRGAGNASASA [FS-901]
furin cleavage Z-score (7.5 min): 2.32 | furin cleavage Z-score (15 min): 2.87 | furin cleavage Z-score (30 min): 3.05

CATMSRLARTAGNASASA [FS-1424]
furin cleavage Z-score (7.5 min): 2.67 | furin cleavage Z-score (15 min): 3.44 | furin cleavage Z-score (30 min): 2.64

CARGRRSEDQAGNASASA [FS-2419]
furin cleavage Z-score (7.5 min): 3.38 | furin cleavage Z-score (15 min): 2.69 | furin cleavage Z-score (30 min): 1.78

CAHRCRHKRWAGNASASA [FS-133]
furin cleavage Z-score (7.5 min): active: 5.93 | furin cleavage Z-score (15 min): active: 10.1 | furin cleavage Z-score (30 min): active: 8.03

CAKREVPCHRAGNASASA [HC2434]
furin cleavage Z-score (7.5 min): 2.19 | furin cleavage Z-score (15 min): 1.6 | furin cleavage Z-score (30 min): 3.27

CAVSKRHVRIAGNASASA [FS-2114]
furin cleavage Z-score (7.5 min): inactive: -0.647 | furin cleavage Z-score (15 min): 1.47 | furin cleavage Z-score (30 min): 2.71

CAMEECGQHLAGNASASA [HC22]
furin cleavage Z-score (7.5 min): inactive: 0.622 | furin cleavage Z-score (15 min): inactive: 0.186 | furin cleavage Z-score (30 min): 1.5

CARLGVRATRAGNASASA [HC182]
furin cleavage Z-score (7.5 min): 2.63 | furin cleavage Z-score (15 min): 1.61 | furin cleavage Z-score (30 min): 1.26

CARLPRSNSLAGNASASA [FS-2710]
furin cleavage Z-score (7.5 min): 1.22 | furin cleavage Z-score (15 min): 1.87 | furin cleavage Z-score (30 min): 2.28

CAHSSRLKRLAGNASASA [FS-1011]
furin cleavage Z-score (7.5 min): active: 6.44 | furin cleavage Z-score (15 min): active: 7.96 | furin cleavage Z-score (30 min): active: 7.66

CARARRGVEVAGNASASA [FS-2647]
furin cleavage Z-score (7.5 min): active: 4.52 | furin cleavage Z-score (15 min): active: 5.87 | furin cleavage Z-score (30 min): active: 6.09

CATGARGLRSAGNASASA [FS-726]
furin cleavage Z-score (7.5 min): 1.01 | furin cleavage Z-score (15 min): 1.84 | furin cleavage Z-score (30 min): 2.33

CAPKGRPKRAAGNASASA [FS-1047]
furin cleavage Z-score (7.5 min): active: 11.3 | furin cleavage Z-score (15 min): active: 13.3 | furin cleavage Z-score (30 min): active: 9.54

CALMRRRRRKAGNASASA [FS-1599]
furin cleavage Z-score (7.5 min): active: 8.11 | furin cleavage Z-score (15 min): active: 10.6 | furin cleavage Z-score (30 min): active: 8.59

CARFKRKDRMAGNASASA [FS-2553]
furin cleavage Z-score (7.5 min): active: 4.28 | furin cleavage Z-score (15 min): active: 3.52 | furin cleavage Z-score (30 min): active: 4.13

CARHPRRSRPAGNASASA [FS-2941]
furin cleavage Z-score (7.5 min): 1.01 | furin cleavage Z-score (15 min): 1.36 | furin cleavage Z-score (30 min): 1.29

CATSSRNARNAGNASASA [FS-571]
furin cleavage Z-score (7.5 min): 3.05 | furin cleavage Z-score (15 min): active: 4.2 | furin cleavage Z-score (30 min): active: 5.2

CAMEACSQHLAGNASASA [HC1703]
furin cleavage Z-score (7.5 min): 1.85 | furin cleavage Z-score (15 min): 1.21 | furin cleavage Z-score (30 min): 1.86

CADEECSQHLAGNASASA [HC1671]
furin cleavage Z-score (7.5 min): inactive: 0.117 | furin cleavage Z-score (15 min): inactive: 0.56 | furin cleavage Z-score (30 min): inactive: -0.0902

CARPYRAIDFAGNASASA [FS-2061]
furin cleavage Z-score (7.5 min): 1.01 | furin cleavage Z-score (15 min): 1.47 | furin cleavage Z-score (30 min): 2.09

CAMEECRQHLAGNASASA [HC30]
furin cleavage Z-score (7.5 min): 1.36 | furin cleavage Z-score (15 min): 2.65 | furin cleavage Z-score (30 min): 2.2

CAGKGRHHRGAGNASASA [FS-999]
furin cleavage Z-score (7.5 min): 3.13 | furin cleavage Z-score (15 min): 1.4 | furin cleavage Z-score (30 min): 3.02

CADVRCHARKAGNASASA [HC1424]
furin cleavage Z-score (7.5 min): 1.71 | furin cleavage Z-score (15 min): 1.47 | furin cleavage Z-score (30 min): 1.56

CARVKKEWEEAGNASASA [FS-1871]
furin cleavage Z-score (7.5 min): inactive: -0.778 | furin cleavage Z-score (15 min): inactive: -0.527 | furin cleavage Z-score (30 min): inactive: -1.03
